This is one part of the list.
Compound: CC1Cc2ccccc2N1C(=O)C1CCCN(C1)C(=O)CCl (mixture of isomers) [TRIM25 ligand 11 (diastereomer mixture)]
Assay: probe-labelled cysteine peptide fold change vs DMSO (competition) (log2 fold change); higher = less target engagement (more negative = stronger competition)
Conditions: THP-1, incubation time: 4 h
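Also: competitive chemoproteomic profiling in live THP-1 cells with an iodoacetamide desthiobiotin (IA-DTB) probe, comparing probe-labelled peptide intensities in compound-treated cells against DMSO-treated controls.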

By UniProt entry, the sequences of proteins in these tests, tags left out. Where a name states a change or a piece, a line headed by the entry shows the natural chain unless it says otherwise.
UniProt P78362, whole entry, looked up: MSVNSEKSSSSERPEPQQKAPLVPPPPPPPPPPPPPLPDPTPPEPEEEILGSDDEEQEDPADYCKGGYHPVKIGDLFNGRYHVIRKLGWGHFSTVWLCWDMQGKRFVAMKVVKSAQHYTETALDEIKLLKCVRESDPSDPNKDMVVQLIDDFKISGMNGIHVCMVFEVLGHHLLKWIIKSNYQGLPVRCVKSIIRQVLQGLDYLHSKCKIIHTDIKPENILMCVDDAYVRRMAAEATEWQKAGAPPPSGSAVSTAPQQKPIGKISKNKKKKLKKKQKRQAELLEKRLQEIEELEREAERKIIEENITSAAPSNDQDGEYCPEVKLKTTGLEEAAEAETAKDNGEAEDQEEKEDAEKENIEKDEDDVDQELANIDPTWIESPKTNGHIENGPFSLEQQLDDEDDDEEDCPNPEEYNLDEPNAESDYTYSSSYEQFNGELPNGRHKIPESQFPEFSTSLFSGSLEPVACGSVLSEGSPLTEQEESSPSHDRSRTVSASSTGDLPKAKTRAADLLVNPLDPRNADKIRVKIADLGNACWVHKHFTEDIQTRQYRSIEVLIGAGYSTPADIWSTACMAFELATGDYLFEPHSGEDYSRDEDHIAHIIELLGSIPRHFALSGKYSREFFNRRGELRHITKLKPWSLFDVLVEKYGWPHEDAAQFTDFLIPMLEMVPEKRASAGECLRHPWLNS
UniProt Q9UNE7: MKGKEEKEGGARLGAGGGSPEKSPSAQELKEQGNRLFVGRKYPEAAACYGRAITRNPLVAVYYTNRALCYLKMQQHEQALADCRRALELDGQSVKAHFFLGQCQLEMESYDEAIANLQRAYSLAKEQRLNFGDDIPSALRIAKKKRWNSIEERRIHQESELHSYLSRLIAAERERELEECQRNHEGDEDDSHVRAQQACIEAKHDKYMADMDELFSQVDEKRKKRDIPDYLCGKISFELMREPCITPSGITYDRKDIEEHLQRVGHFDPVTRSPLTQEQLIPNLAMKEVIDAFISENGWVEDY
UniProt Q15527: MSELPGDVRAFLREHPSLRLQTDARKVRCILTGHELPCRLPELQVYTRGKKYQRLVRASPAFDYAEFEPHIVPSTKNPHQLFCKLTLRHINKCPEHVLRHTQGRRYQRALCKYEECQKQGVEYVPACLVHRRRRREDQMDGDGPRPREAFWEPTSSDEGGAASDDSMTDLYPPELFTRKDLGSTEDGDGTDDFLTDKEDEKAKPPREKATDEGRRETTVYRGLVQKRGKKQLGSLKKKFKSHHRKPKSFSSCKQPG
UniProt Q15022: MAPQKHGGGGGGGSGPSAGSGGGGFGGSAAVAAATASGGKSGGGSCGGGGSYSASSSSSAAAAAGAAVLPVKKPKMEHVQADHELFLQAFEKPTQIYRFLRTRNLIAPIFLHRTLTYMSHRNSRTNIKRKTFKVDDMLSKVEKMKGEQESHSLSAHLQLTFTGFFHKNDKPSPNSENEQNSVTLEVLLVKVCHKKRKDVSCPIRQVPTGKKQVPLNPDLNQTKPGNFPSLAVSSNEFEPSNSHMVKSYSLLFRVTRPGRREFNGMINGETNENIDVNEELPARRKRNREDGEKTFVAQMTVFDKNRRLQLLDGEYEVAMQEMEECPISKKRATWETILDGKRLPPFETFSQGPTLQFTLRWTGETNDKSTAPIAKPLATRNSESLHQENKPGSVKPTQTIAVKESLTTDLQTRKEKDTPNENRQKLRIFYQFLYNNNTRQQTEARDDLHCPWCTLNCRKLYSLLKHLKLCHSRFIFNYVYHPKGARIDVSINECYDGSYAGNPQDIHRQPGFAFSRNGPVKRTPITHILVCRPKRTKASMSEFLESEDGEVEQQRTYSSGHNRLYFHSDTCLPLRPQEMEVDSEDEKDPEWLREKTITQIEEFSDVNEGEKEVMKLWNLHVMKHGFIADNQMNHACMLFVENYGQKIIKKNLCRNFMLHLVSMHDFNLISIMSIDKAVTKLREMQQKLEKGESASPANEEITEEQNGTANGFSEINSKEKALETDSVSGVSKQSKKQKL
UniProt P31948, whole entry, looked up: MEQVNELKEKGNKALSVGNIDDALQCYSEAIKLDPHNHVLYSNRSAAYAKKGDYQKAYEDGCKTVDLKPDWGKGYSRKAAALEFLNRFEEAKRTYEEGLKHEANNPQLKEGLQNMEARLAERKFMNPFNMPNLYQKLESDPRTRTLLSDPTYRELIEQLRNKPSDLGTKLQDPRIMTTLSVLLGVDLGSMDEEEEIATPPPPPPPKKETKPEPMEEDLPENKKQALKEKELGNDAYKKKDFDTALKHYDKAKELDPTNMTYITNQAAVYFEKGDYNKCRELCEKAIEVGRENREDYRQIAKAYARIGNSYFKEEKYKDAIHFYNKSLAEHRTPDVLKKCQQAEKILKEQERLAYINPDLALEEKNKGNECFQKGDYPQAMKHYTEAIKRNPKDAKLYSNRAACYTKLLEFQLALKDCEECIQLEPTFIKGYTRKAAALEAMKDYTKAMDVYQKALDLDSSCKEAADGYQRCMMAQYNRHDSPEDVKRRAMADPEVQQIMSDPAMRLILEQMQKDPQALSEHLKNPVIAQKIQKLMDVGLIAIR
UniProt Q9Y5Y6: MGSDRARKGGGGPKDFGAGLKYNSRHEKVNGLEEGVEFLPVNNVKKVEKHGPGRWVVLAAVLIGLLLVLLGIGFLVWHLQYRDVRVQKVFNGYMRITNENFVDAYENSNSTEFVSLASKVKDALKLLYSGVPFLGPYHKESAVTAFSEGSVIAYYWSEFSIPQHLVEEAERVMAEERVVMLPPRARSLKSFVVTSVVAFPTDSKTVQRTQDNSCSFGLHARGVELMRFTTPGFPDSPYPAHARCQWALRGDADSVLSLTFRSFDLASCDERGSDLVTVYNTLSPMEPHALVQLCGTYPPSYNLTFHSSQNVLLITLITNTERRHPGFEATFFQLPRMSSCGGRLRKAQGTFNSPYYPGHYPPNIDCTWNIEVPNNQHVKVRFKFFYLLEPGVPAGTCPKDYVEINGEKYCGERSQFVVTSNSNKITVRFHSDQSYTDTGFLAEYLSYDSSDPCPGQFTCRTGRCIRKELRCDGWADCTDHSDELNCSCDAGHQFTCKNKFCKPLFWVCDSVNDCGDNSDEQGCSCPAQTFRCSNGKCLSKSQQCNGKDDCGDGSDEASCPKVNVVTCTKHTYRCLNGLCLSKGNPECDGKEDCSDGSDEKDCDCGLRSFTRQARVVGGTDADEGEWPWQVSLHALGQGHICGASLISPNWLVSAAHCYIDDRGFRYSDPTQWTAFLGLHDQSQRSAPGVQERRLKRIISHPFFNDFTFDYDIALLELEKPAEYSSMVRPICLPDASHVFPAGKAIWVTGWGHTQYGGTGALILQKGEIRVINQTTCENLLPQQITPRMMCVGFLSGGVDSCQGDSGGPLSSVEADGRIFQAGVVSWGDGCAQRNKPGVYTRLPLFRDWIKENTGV
UniProt P52630: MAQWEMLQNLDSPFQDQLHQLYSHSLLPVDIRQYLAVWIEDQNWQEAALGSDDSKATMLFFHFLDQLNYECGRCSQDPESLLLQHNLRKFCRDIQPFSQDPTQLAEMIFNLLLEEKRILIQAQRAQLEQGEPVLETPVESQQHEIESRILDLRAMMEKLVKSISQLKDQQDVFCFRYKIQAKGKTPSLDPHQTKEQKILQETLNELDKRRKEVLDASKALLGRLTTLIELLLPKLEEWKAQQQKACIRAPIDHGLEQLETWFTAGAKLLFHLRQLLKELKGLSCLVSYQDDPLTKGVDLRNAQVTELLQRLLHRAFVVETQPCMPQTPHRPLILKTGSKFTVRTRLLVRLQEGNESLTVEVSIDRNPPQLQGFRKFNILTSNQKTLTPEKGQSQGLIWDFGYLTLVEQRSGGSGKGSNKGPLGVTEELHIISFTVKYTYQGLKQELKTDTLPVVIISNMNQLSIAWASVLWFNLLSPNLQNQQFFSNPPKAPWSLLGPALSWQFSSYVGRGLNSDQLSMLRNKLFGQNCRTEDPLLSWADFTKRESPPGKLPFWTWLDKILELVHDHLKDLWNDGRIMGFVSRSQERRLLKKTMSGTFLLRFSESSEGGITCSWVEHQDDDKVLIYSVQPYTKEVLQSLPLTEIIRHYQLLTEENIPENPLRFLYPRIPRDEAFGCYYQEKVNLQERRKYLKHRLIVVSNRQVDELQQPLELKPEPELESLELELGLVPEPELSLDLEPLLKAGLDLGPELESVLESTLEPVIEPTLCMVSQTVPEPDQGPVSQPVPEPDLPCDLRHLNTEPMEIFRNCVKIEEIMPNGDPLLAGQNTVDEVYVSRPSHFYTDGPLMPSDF
UniProt P46977: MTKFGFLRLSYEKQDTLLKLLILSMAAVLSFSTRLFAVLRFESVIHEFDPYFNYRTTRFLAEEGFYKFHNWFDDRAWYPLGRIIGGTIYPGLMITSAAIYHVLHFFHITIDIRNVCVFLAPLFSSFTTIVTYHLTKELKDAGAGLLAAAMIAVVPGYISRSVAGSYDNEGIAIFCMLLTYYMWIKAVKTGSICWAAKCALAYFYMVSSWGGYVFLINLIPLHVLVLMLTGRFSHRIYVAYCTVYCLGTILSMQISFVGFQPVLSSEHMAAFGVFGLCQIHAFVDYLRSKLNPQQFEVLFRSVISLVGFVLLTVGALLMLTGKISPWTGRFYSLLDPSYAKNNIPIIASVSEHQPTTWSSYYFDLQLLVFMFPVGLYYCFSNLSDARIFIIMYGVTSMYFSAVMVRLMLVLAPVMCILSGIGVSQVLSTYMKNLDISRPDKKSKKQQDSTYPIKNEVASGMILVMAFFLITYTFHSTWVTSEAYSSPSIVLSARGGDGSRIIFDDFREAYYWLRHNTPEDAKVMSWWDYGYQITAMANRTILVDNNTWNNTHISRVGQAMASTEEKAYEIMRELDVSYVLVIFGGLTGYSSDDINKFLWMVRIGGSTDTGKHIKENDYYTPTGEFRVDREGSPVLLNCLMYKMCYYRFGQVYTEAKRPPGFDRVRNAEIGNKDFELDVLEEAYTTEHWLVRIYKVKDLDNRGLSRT
UniProt O95793: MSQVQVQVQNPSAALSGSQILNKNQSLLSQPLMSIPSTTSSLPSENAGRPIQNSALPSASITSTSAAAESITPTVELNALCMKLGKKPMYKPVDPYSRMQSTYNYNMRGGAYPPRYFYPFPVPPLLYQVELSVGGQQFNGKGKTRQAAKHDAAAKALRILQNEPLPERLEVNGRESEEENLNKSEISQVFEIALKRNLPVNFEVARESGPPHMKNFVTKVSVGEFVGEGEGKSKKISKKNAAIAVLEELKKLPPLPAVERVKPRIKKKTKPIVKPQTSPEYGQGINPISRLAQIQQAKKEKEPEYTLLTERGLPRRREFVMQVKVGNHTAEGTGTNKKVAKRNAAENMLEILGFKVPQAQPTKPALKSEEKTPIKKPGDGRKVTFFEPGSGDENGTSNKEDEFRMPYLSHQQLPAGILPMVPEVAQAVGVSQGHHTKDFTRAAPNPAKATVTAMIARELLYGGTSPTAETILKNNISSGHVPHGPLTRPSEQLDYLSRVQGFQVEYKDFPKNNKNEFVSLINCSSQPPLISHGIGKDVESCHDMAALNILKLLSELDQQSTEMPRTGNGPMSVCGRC
UniProt O94804: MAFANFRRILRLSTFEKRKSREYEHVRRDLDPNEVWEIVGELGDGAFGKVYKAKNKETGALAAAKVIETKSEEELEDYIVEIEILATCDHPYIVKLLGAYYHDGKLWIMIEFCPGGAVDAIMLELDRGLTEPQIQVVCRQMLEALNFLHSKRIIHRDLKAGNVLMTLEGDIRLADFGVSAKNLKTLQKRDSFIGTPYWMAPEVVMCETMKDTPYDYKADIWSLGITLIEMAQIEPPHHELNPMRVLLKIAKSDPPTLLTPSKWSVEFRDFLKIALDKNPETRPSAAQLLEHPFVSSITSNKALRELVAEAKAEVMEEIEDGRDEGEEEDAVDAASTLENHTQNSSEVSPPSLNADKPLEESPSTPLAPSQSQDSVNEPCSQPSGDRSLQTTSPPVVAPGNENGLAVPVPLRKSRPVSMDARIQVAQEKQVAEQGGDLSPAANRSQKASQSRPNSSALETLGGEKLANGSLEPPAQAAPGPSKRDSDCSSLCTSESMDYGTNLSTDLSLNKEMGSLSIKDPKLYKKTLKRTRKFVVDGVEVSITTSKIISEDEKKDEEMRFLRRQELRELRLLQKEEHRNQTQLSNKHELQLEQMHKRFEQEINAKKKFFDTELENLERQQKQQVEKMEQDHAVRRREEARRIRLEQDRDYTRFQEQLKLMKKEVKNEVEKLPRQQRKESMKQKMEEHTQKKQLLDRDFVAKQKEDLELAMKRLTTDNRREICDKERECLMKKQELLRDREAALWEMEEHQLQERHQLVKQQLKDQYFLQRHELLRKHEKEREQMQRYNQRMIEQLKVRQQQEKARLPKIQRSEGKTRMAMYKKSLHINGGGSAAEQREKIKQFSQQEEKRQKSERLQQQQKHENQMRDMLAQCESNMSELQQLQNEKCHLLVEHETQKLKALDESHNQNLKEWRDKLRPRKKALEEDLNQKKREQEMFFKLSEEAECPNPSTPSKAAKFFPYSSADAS

| Target | probe-labelled cysteine peptide fold change (10 µM) | probe-labelled cysteine peptide fold change (50 µM) |
| --- | --- | --- |
| SRSF9_Q13242_138_EAGDVCYADVQK (UniProt Q13242) | -0.133 | -0.315 |
| STAM_Q92783_76_DPHVAMQALTLLGACVSNCGK (UniProt Q92783) | 0.027 | 0.192 |
| STYX_Q8WUJ0_62_HGITHIICIR (UniProt Q8WUJ0) | 0.00893 | 0.197 |
| SRPK2_P78362_223_IIHTDIKPENILMCVDDAYVR (UniProt P78362) | 0.055 | -0.19 |
| STUB1_Q9UNE7_180_ERELEECQR (UniProt Q9UNE7) | -0.0845 | 0.0492 |
| SURF2_Q15527_93_CPEHVLR (UniProt Q15527) | 0.0339 | 0.114 |
| SUZ12_Q15022_531_TPITHILVCR (UniProt Q15022) | -0.311 | 0.0908 |
| STIP1_P31948_417_DCEECIQLEPTFIK (UniProt P31948) | -0.211 | 0.0682 |
| ST14_Q9Y5Y6_214_TQDNSCSFGLHAR (UniProt Q9Y5Y6) | 0.123 | -0.0316 |
| STAT2_P52630_74_CSQDPESLLLQHNLR (UniProt P52630) | 0.116 | 0.0599 |
| STT3A_P46977_637_EGSPVLLNCLMYK (UniProt P46977) | 0.114 | 0.0604 |
| STAU1_O95793_523_NEFVSLINCSSQPPLISHGIGK (UniProt O95793) | -0.109 | -0.236 |
| STK10_O94804_873_DMLAQCESNMSELQQLQNEK (UniProt O94804) | -0.213 | -0.448 |
| STRIP1_Q5VSL9_769_HRLNDDWAYGNDLDARPWDFQAEECALR (UniProt Q5VSL9) | -0.224 | -0.145 |

Already shown: entries from further up.

| Target | probe-labelled cysteine peptide fold change (10 µM) | probe-labelled cysteine peptide fold change (50 µM) |
| --- | --- | --- |
| STAT2_P52630_74_CSQDPESLLLQHNLR (UniProt P52630) | 0.116 | 0.0599 |
| STT3A_P46977_637_EGSPVLLNCLMYK (UniProt P46977) | 0.114 | 0.0604 |

— the supplement of paper PMC12067093, “Discovery and optimisation of a covalent ligand for TRIM25 and its application to targeted protein ubiquitination” (Chemical Science, 2025)
